From paper PMC9044032, “OsbZIP47 Is an Integrator for Meristem Regulators During Rice Plant Growth and Development” (Frontiers in Plant Science, 2022) come the findings set out here.

These are yes or no findings as the source states them, for the method shown. Binding can be weak; no strength is given. Where a sequence is shown, tags or fusion partners need not be part of it.

The target in the test is T1, OsbZIP47ΔC (C-terminal truncated OsbZIP47 lacking 186-385 amino acids), Gal4 BD fusion (rice (Oryza sativa)) (UniProt Q5Z6N9).
T1 sequence: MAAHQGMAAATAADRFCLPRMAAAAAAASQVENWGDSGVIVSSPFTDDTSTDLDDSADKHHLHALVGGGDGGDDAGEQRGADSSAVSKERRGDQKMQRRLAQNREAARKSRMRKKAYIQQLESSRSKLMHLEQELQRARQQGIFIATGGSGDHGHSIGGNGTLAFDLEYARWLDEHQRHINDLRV
The experiment in a line: two-hybrid; Gal4 BD-OsbZIP47ΔC as bait (pGBDUC1), preys fused to GAL4 AD (pGADC1), yeast pJ69-4A; serial dilution spotting on SD/-Leu-Ura-His + 10 mM 3AT, growth after five days at 30°C; ONPG / X-gal quantitative assay.

Consider “OsMADS1 (MIKC14 domain), GAL4 AD fusion (rice (Oryza sativa)) (domain or fragment)”, for which the binding entry is reported as “binds”.

For “OsETTIN1, GAL4 AD fusion (rice (Oryza sativa))”, the binding entry is “no binding”.

Regarding “OsETTIN2, GAL4 AD fusion (rice (Oryza sativa))”, the binding result is reported as “no binding”.
